# Data published in paper PMC6925385, “Dual role of a GTPase conformational switch for membrane fusion by mitofusin ubiquitylation” (Life Science Alliance, 2019).
# Protein sequences, listed by entry. Tags and fused reporters are not part of them.
# UniProt P25694: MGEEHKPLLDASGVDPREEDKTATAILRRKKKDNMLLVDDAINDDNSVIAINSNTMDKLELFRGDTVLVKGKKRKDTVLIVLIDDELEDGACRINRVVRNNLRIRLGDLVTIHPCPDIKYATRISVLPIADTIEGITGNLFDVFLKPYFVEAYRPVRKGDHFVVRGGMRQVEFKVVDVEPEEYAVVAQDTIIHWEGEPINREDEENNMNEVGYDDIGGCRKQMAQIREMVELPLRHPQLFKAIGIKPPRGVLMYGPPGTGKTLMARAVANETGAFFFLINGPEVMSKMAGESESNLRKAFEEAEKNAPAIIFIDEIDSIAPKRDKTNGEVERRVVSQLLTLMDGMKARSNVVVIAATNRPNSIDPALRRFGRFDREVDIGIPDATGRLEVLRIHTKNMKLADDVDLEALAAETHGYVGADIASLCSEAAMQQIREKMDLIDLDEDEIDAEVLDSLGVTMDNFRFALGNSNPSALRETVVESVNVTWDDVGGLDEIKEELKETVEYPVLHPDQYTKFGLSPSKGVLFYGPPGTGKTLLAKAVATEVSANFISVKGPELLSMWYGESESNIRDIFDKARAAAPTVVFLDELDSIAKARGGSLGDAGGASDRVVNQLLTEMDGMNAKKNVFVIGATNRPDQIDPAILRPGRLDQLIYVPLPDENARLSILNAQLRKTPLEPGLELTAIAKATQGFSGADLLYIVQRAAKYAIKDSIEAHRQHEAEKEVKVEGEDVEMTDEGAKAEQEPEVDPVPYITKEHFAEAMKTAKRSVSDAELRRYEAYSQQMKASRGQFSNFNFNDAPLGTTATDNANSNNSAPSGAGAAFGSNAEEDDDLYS
# No constants are given. Whether binding was seen depends on the method and setting. For part of these data: In cells and extracts the contact can be indirect. Some results given as binding are weak or reduced against the parent protein; the word gives no strength. Where a sequence is shown, tags or fusion partners need not be part of it.
# T1: HA-tagged Fzo1^K398,382R (yeast (strains isogenic to S288c)) (UniProt P38297)
# T1 sequence (chain, conserved ubiquitylation pattern restored, at a lower level than wt): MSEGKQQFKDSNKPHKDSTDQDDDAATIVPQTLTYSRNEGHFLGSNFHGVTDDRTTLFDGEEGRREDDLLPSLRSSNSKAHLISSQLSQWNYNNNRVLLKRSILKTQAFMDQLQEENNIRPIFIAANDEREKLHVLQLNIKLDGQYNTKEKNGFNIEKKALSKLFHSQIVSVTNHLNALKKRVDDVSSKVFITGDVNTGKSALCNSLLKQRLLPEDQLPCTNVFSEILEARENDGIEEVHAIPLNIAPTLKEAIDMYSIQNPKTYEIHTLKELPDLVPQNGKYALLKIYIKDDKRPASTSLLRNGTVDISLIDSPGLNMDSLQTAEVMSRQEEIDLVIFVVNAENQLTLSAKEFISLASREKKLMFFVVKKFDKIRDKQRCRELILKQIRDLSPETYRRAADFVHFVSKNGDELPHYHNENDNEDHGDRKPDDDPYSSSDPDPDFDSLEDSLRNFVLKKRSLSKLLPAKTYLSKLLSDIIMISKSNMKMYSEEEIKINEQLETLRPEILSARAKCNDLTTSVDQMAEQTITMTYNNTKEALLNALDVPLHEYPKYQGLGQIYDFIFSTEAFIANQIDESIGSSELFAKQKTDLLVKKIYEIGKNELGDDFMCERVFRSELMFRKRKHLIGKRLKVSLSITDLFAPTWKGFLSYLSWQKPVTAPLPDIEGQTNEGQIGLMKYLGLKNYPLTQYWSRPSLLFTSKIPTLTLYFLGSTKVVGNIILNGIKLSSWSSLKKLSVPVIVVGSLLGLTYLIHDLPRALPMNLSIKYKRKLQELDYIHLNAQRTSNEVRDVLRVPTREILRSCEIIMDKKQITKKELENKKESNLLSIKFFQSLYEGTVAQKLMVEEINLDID
# T2: HA-tagged Fzo1^K398,382,387R (yeast (strains isogenic to S288c)) (UniProt P38297)
# T2 sequence: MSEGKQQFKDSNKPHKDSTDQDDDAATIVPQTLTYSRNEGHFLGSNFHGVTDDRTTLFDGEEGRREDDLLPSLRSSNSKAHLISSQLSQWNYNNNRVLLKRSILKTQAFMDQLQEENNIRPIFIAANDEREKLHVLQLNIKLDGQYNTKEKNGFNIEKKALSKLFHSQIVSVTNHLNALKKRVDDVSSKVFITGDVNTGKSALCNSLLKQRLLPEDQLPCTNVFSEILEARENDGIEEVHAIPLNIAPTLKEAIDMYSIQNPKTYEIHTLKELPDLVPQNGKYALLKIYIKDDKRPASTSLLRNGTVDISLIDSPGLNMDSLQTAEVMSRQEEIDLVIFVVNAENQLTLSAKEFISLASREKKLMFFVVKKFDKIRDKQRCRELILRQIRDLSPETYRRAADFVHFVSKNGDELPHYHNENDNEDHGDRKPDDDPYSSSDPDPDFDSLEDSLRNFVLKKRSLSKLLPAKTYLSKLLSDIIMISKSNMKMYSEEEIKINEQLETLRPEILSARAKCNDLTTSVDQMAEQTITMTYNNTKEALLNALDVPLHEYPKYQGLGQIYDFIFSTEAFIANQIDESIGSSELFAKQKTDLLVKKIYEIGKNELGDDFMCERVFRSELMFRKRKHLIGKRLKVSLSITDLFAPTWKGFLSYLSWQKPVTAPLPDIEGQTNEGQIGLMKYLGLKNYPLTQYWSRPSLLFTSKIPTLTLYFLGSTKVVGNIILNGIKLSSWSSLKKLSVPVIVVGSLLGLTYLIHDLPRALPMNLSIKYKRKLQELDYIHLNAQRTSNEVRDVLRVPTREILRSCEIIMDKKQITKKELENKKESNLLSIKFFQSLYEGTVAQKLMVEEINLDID
# Legend:
# [1] = target: T1, HA-tagged Fzo1^K398,382R (yeast (strains isogenic to S288c)); assay: co-IP; crude membrane/mitochondrial fraction of yeast cells solubilized with 0.2% NG310 in TBS; HA-Fzo1 variants immunoprecipitated over night at 4°C, washed three times, blots with HA- and Cdc48-specific antibodies; wt and Δubp2 cells (Fig 3D, grown at 37°C) and Δfzo1 cells with plasmid-borne variants (Figs 4B, 5C)
# [2] = target: T2, HA-tagged Fzo1^K398,382,387R (yeast (strains isogenic to S288c)); assay: as above
# [3] = target: HA-tagged Fzo1^K398R (yeast (strains isogenic to S288c)) (UniProt P38297); assay: sucrose gradient centrifugation; crude mitochondrial extracts solubilized with 1% digitonin at high protein density (pellet in 50 μl); 5-25% sucrose gradient, 14-16 h at 4°C; fractions blotted for HA; cells grown at 30°C and 37°C
binding [1],binding [2],binding [3],Molecule
binds,no binding,,Cdc48 (ubiquitin-specific AAA chaperone Cdc48/p97/VCP) (from UniProt P25694 1-835)
,,binds,"HA-tagged Fzo1^K398R (protein, UniProt P38297 1-855, ladder-like ubiquitylation on a residue other than K398) MSEGKQQFKDSNKPHKDSTDQDDDAATIVPQTLTYSRNEGHFLGSNFHGVTDDRTTLFDGEEGRREDDLLPSLRSSNSKAHLISSQLSQWNYNNNRVLLKRSILKTQAFMDQLQEENNIRPIFIAANDEREKLHVLQLNIKLDGQYNTKEKNGFNIEKKALSKLFHSQIVSVTNHLNALKKRVDDVSSKVFITGDVNTGKSALCNSLLKQRLLPEDQLPCTNVFSEILEARENDGIEEVHAIPLNIAPTLKEAIDMYSIQNPKTYEIHTLKELPDLVPQNGKYALLKIYIKDDKRPASTSLLRNGTVDISLIDSPGLNMDSLQTAEVMSRQEEIDLVIFVVNAENQLTLSAKEFISLASREKKLMFFVVKKFDKIRDKQRCKELILKQIRDLSPETYRRAADFVHFVSKNGDELPHYHNENDNEDHGDRKPDDDPYSSSDPDPDFDSLEDSLRNFVLKKRSLSKLLPAKTYLSKLLSDIIMISKSNMKMYSEEEIKINEQLETLRPEILSARAKCNDLTTSVDQMAEQTITMTYNNTKEALLNALDVPLHEYPKYQGLGQIYDFIFSTEAFIANQIDESIGSSELFAKQKTDLLVKKIYEIGKNELGDDFMCERVFRSELMFRKRKHLIGKRLKVSLSITDLFAPTWKGFLSYLSWQKPVTAPLPDIEGQTNEGQIGLMKYLGLKNYPLTQYWSRPSLLFTSKIPTLTLYFLGSTKVVGNIILNGIKLSSWSSLKKLSVPVIVVGSLLGLTYLIHDLPRALPMNLSIKYKRKLQELDYIHLNAQRTSNEVRDVLRVPTREILRSCEIIMDKKQITKKELENKKESNLLSIKFFQSLYEGTVAQKLMVEEINLDID"
